Laboratory results taken from the supplement of paper PMC7666118.
The list shows a part of the results.

By UniProt entry, the sequences of proteins in these tests, tags left out. Where a name states a change or a piece, a line headed by the entry shows the natural chain unless it says otherwise.
UniProt Q9P0S9: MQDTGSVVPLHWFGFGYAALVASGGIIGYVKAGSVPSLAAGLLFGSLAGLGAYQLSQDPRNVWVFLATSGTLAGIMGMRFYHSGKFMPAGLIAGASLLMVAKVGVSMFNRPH
UniProt Q15554: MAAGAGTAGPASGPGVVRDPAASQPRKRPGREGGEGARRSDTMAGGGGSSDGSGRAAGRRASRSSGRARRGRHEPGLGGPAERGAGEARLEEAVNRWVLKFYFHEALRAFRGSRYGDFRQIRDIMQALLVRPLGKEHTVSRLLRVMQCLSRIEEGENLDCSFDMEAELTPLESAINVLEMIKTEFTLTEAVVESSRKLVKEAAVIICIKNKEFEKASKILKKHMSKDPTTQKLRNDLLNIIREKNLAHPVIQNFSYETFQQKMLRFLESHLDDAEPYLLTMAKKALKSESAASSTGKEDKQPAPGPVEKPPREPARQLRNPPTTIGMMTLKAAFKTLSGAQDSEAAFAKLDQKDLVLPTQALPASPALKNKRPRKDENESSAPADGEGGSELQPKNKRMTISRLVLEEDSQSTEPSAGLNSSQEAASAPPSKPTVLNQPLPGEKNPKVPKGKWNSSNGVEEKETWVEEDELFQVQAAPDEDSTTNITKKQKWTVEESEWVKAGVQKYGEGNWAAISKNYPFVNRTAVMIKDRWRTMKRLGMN
UniProt A5PLL7: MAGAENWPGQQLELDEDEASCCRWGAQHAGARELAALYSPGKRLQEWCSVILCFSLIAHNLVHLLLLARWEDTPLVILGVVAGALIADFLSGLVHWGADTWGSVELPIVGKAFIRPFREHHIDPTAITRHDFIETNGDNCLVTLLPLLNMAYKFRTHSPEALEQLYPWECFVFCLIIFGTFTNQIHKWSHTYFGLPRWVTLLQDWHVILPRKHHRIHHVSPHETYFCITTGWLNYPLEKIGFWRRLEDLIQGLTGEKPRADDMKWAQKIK
UniProt O60830: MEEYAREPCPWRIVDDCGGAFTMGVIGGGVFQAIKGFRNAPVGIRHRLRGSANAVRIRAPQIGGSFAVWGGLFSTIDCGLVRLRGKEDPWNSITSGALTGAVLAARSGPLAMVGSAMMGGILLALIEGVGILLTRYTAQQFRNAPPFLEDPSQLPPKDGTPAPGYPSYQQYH
UniProt Q92844: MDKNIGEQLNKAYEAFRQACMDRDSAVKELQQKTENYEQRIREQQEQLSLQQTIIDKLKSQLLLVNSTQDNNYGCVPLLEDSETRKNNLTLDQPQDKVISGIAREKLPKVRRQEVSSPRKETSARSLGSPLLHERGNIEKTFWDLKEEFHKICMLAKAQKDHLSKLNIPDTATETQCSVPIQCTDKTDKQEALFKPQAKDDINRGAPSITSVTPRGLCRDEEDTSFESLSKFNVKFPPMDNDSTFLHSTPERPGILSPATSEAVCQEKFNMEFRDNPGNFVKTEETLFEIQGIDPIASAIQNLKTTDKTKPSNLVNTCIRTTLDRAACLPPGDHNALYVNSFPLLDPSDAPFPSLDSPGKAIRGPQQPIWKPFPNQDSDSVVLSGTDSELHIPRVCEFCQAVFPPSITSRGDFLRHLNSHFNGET
UniProt Q9BQ70: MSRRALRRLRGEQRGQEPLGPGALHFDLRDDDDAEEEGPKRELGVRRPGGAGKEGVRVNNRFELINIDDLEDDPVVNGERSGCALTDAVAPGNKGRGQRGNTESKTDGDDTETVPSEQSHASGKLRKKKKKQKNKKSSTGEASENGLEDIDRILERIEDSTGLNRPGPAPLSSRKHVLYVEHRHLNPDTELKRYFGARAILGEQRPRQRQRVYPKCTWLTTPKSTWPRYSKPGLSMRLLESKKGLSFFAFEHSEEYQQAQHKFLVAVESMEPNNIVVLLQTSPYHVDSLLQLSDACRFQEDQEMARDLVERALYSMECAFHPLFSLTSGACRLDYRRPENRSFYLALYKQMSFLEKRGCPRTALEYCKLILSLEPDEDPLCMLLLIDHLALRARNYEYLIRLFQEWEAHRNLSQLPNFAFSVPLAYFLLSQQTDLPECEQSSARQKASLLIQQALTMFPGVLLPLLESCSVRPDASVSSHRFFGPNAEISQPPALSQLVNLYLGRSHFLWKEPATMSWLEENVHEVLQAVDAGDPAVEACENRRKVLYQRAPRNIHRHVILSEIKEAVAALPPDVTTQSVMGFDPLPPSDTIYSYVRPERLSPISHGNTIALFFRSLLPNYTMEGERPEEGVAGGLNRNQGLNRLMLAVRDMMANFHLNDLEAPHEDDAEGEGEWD
UniProt P11388: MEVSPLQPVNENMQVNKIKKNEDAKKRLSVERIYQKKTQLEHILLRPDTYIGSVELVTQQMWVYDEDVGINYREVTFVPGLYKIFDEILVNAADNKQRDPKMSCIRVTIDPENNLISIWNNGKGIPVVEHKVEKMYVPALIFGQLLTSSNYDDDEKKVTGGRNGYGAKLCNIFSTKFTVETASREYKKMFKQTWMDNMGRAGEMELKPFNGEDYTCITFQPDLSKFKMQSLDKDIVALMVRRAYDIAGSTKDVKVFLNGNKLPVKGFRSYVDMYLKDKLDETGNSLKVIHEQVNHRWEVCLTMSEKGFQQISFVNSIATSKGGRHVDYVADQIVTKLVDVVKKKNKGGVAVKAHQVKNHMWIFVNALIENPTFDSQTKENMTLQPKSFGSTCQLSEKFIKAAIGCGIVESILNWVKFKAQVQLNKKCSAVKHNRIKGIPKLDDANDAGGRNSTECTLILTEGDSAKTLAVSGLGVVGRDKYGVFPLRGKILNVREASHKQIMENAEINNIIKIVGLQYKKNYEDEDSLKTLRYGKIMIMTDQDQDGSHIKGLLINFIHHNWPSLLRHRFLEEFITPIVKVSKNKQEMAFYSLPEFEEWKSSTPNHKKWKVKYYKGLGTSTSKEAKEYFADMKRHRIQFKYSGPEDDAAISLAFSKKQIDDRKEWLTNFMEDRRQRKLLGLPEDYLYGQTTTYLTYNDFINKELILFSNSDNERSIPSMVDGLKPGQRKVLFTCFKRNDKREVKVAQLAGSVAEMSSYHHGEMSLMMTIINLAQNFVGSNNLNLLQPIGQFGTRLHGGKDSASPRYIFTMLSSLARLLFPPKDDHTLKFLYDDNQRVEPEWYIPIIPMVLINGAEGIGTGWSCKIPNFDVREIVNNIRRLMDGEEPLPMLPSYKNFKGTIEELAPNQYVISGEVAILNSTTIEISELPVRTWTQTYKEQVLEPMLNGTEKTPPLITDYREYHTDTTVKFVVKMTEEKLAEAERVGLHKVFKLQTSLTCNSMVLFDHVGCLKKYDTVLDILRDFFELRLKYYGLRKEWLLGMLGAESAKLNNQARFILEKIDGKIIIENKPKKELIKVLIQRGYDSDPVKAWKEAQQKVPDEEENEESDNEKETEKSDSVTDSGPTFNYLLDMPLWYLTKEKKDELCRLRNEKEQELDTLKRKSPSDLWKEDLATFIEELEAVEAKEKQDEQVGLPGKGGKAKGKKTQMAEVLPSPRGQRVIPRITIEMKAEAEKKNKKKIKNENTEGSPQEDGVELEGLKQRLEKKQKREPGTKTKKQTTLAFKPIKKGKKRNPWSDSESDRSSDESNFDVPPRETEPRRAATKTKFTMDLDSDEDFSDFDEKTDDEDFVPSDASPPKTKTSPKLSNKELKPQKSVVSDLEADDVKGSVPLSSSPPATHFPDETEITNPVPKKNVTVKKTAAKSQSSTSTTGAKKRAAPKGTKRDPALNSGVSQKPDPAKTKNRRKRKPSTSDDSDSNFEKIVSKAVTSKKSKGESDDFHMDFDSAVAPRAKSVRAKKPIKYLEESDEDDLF
UniProt P17987, whole entry: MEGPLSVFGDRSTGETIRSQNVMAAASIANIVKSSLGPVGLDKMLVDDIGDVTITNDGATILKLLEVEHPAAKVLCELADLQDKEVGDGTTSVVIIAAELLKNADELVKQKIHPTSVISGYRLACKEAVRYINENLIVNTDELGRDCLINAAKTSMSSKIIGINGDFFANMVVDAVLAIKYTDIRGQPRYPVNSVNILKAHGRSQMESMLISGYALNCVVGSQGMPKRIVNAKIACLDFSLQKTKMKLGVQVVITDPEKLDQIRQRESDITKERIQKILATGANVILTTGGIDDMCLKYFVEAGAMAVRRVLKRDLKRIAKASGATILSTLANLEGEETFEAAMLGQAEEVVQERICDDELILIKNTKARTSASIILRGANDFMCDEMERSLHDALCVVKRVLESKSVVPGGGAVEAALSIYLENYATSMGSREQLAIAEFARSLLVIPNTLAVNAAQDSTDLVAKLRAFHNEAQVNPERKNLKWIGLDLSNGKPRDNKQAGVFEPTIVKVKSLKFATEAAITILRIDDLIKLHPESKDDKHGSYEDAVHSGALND
UniProt Q53FA7: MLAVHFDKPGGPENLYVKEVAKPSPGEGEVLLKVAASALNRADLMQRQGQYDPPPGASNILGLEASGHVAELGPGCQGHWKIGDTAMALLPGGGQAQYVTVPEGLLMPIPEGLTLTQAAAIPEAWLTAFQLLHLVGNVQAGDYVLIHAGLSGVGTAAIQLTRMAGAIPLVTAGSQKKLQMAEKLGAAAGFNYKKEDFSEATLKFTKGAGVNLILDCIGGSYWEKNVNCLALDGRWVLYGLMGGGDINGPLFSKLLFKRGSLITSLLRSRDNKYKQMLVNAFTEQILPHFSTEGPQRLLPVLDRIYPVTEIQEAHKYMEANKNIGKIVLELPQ
UniProt Q8NE00: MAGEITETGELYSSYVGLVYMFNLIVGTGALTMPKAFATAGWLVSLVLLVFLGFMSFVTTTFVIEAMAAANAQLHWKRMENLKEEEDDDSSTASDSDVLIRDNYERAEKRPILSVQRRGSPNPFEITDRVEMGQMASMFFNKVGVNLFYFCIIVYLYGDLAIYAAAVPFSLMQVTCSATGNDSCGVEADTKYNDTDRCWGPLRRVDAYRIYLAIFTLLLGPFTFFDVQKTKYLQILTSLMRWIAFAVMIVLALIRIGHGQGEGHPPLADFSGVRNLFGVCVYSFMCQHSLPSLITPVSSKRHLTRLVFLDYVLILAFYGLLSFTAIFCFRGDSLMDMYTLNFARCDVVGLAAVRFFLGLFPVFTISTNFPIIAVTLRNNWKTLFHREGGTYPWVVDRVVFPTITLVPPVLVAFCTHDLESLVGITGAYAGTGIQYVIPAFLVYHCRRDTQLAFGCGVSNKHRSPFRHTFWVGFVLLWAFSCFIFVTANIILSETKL
UniProt Q92609: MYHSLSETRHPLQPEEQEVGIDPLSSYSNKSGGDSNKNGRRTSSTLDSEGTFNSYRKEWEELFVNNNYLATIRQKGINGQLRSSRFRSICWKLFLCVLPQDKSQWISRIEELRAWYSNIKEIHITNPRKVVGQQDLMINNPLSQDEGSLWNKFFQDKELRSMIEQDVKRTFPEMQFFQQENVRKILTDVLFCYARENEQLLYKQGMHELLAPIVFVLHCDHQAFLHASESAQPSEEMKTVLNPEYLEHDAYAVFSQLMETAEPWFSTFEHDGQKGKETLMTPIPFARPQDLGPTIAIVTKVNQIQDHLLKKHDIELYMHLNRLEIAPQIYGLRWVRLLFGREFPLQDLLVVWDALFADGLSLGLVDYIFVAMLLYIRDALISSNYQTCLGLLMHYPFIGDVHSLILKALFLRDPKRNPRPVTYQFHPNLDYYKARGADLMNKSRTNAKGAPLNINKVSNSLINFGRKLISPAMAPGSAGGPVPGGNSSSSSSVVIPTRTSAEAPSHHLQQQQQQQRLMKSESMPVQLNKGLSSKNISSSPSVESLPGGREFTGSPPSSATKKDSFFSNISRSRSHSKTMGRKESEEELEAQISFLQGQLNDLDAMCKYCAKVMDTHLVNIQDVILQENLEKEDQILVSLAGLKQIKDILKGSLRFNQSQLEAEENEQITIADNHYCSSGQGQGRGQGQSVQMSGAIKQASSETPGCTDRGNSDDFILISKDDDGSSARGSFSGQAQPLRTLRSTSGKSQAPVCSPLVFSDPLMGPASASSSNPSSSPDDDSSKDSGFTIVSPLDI
UniProt Q15560: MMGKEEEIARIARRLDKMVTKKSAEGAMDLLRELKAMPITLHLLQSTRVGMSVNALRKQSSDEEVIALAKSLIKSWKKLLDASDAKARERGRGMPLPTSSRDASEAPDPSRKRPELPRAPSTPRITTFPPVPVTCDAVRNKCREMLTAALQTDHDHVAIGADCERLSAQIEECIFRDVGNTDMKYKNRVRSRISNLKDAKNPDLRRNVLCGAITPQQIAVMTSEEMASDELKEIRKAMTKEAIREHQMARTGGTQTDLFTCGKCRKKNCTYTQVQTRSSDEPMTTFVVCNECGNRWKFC
UniProt Q9NV96: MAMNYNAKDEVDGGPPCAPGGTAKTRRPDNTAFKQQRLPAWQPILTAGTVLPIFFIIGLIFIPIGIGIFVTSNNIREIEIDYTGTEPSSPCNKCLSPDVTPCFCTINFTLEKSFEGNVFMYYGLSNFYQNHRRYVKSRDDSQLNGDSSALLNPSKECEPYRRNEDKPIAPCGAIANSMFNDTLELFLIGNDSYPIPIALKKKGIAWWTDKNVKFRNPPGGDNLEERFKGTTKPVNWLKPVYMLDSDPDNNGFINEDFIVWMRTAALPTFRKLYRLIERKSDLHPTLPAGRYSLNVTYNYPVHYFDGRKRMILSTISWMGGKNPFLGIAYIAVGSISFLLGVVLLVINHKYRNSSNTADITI

compound: COc1ccc(Cn2ccc3ccc(C(=O)NO)cc32)cc1; test: dose-dependent thermal stabilisation call (2D-TPP, DLPTP, 10% FDR) (binary (1 = stabilised)); higher = stabilised by the compound; conditions: system: HL-60 intact cells; concentration range 0.04-10 µM

Target | dose-dependent thermal stabilisation call
TCOF1 (UniProt Q13428) | inactive: 0
TMEM14C (UniProt Q9P0S9) | inactive: 0
TAX1BP1 (UniProt Q86VP1) | inactive: 0
TCEB2 (UniProt Q15370) | inactive: 0
TAF8 (UniProt Q7Z7C8) | inactive: 0
TERF2 (UniProt Q15554) | inactive: 0
TMEM97 (UniProt Q5BJF2) | inactive: 0
TIMM44 (UniProt O43615) | inactive: 0
TAPBP (UniProt O15533) | inactive: 0
TIMM23B (UniProt Q5SRD1) | inactive: 0
TMEM62 (UniProt Q0P6H9) | inactive: 0
TMEM189-UBE2V1 (UniProt A5PLL7) | inactive: 0
TIPIN (UniProt Q9BVW5) | inactive: 0
TIMM17B (UniProt O60830) | inactive: 0
TOMM70A (UniProt O94826) | inactive: 0
TNFRSF1A (UniProt P19438) | inactive: 0
TANK (UniProt Q92844) | inactive: 0
TCF25 (UniProt Q9BQ70) | inactive: 0
TAOK1 (UniProt Q7L7X3) | inactive: 0

Taken from above:
TCF25 (UniProt Q9BQ70) – dose-dependent thermal stabilisation call: inactive: 0
TMEM189-UBE2V1 (UniProt A5PLL7) – dose-dependent thermal stabilisation call: inactive: 0

The results go on.

Target | dose-dependent thermal stabilisation call
TOP3A (UniProt Q13472) | inactive: 0
THUMPD1 (UniProt Q9NXG2) | inactive: 0
TBC1D7 (UniProt Q9P0N9) | inactive: 0
TOP2A (UniProt P11388) | inactive: 0
TNFRSF8 (UniProt P28908) | inactive: 0
TINP1 (UniProt O95478) | inactive: 0
TAOK2 (UniProt Q9UL54) | inactive: 0
TCP1 (UniProt P17987) | inactive: 0
TNIK (UniProt Q9UKE5) | inactive: 0
TP53I3 (UniProt Q53FA7) | inactive: 0
TMEM104 (UniProt Q8NE00) | inactive: 0
TBC1D5 (UniProt Q92609) | inactive: 0
TCEA2 (UniProt Q15560) | inactive: 0
TDP1 (UniProt Q9NUW8) | inactive: 0
THG1L (UniProt Q9NWX6) | inactive: 0
TMEM30A (UniProt Q9NV96) | inactive: 0
TMTC4 (UniProt Q5T4D3) | inactive: 0
TDRD7 (UniProt Q8NHU6) | inactive: 0
